{"source": "PubChem BioAssay AID248", "about": "(DTP/NCI, 2004)", "system": "L1210 leukemia ip in BDF1 mice, survival T/C", "test": "NCI In Vivo Anticancer Drug Screen. Data for tumor model L1210 Leukemia (intraperitoneal) in B6D2F1 (BDF1) mice", "conditions": "T/C endpoint: mean survival time, higher T/C = longer survival", "key": {"[1]": {"conditions": "dose: 100.0 mg/kg/injection, schedule: Q01DX001 (ip), vehicle: saline"}, "[2]": {"conditions": "dose: 200.0 mg/kg/injection, schedule: Q01DX001 (ip), vehicle: saline"}, "[3]": {"conditions": "dose: 400.0 mg/kg/injection, schedule: Q01DX001 (ip), vehicle: saline"}, "[4]": {"conditions": "dose: 0.6 mg/kg/injection, schedule: Q01DX Z (ip), vehicle: methylcellulose (MC)"}, "[5]": {"conditions": "dose: 75.0 mg/kg/injection, schedule: Q01DX009 (ip), vehicle: Klucel (hydroxypropylcellulose) (HPC)"}, "[6]": {"conditions": "dose: 150.0 mg/kg/injection, schedule: Q01DX009 (ip), vehicle: Klucel (hydroxypropylcellulose) (HPC)"}, "[7]": {"conditions": "dose: 300.0 mg/kg/injection, schedule: Q01DX009 (ip), vehicle: Klucel (hydroxypropylcellulose) (HPC)"}}, "note": "The list does not hold the whole screen: it covers a few groups of compounds. Not every dose and run of a compound is shown. T/C: endpoint of the treated group in % of that of the vehicle group. Some entries give survivors of the animals treated and no T/C: the source holds a T/C of zero for them, seemingly a mark for toxic or unscored doses. Some doses without a T/C left all or most animals alive at the check, yet need not have been tolerated: survival well below the control is almost never listed, so the zero probably covers shortened survival too. Counts of survivors are from the toxicity check (mostly the fifth day) where no day follows; animals may have died later. Schedule codes are those of the source, taken here to give the interval after Q, in days (D) or hours (H), and the number of doses after X. Some schedules carry Z or #; the key to these is not given. For survival time, the PubChem record calls one and a half times the control and up active, and a quarter to a half above the control has no call in these data; cut-offs in other NCI protocols can differ. Some T/C values carry the count of animals alive at the toxicity check (mostly the fifth day); where neither a count nor a note follows, no animal had died by that day. Some entries were tested several times; their values stand side by side, smallest first."}
{"smiles": "Clc1nc(Cl)nc(NCCBr)n1", "values": [{"measurement": "T/C", "setting": "dose: 75.0 mg/kg/injection, schedule: Q01DX001 (ip), vehicle: carboxymethylcellulose (CMC)", "value": "102 % of control"}, {"measurement": "T/C", "setting": "dose: 150.0 mg/kg/injection, schedule: Q01DX001 (ip), vehicle: carboxymethylcellulose (CMC)", "value": "106 % of control"}, {"measurement": "T/C", "setting": "dose: 300.0 mg/kg/injection, schedule: Q01DX001 (ip), vehicle: carboxymethylcellulose (CMC)", "value": "98 % of control"}]}
{"smiles": "CC(C)(N)CO[P+]([O-])=NC12CC3CC(CC(C3)C1)C2", "note": "(stereo not drawn)", "values": [{"measurement": "T/C", "setting": "dose: 50.0 mg/kg/injection, schedule: Q01DX001 (ip), vehicle: Klucel (hydroxypropylcellulose) (HPC)", "value": "100 % of control"}, {"measurement": "T/C", "setting": "dose: 100.0 mg/kg/injection, schedule: Q01DX001 (ip), vehicle: Klucel (hydroxypropylcellulose) (HPC)", "value": "95 % of control"}, {"measurement": "T/C", "setting": "dose: 200.0 mg/kg/injection, schedule: Q01DX001 (ip), vehicle: Klucel (hydroxypropylcellulose) (HPC)", "value": "95 % of control"}]}
{"smiles": "CCOP1OC(C)C(C)O1", "note": "(stereo not drawn)", "values": [{"measurement": "T/C", "setting": "[1]", "value": "102 % of control"}, {"measurement": "T/C", "setting": "[2]", "value": "115 % of control"}, {"measurement": "T/C", "setting": "[3]", "value": "100 % of control [3 of 4 alive]"}]}
{"smiles": "Cc1c(C)n(C)c2ccc(C(C)(C)c3ccccc3)cc12.O=C(c1cc([N+](=O)[O-])cc([N+](=O)[O-])c1)c1cc([N+](=O)[O-])cc([N+](=O)[O-])c1", "values": [{"measurement": "T/C", "setting": "[1]", "value": "100 % of control"}, {"measurement": "T/C", "setting": "[2]", "value": "97 % of control"}, {"measurement": "T/C", "setting": "[3]", "value": "92 % of control"}]}
{"smiles": "NC(Cc1ccc(N(CCCl)CCCl)c(Cl)c1)C(=O)O", "note": "(stereo not drawn)", "values": [{"measurement": "T/C", "setting": "dose: 0.38 mg/kg/injection, schedule: Q01DX Z (ip), vehicle: methylcellulose (MC)", "value": "124 % of control"}, {"measurement": "T/C", "setting": "[4]", "value": "127 % of control"}, {"measurement": "survivor count", "setting": "[4]", "value": "2 of 6"}, {"measurement": "T/C", "setting": "dose: 0.75 mg/kg/injection, schedule: Q01DX Z (ip), vehicle: methylcellulose (MC)", "value": "131 % of control"}, {"measurement": "T/C", "setting": "dose: 0.9 mg/kg/injection, schedule: Q01DX Z (ip), vehicle: methylcellulose (MC)", "value": "111 [4 of 6 alive] and 144 % of control [5 of 6 alive]"}, {"measurement": "T/C", "setting": "dose: 1.3 mg/kg/injection, schedule: Q01DX Z (ip), vehicle: methylcellulose (MC)", "value": "111 and 145 % of control [5 of 6 alive]"}, {"measurement": "T/C", "setting": "dose: 1.5 mg/kg/injection, schedule: Q01DX Z (ip), vehicle: methylcellulose (MC)", "value": "131 % of control"}, {"measurement": "T/C", "setting": "dose: 2.0 mg/kg/injection, schedule: Q01DX Z (ip), vehicle: methylcellulose (MC)", "value": "103 [4 of 6 alive] and 182 % of control"}, {"measurement": "T/C", "setting": "dose: 3.0 mg/kg/injection, schedule: Q01DX Z (ip), vehicle: methylcellulose (MC)", "value": "154 % of control"}, {"measurement": "survivor count", "setting": "dose: 6.0 mg/kg/injection, schedule: Q01DX Z (ip), vehicle: methylcellulose (MC)", "value": "5 of 6"}]}
{"smiles": "OC(SC(O)C(Cl)(Cl)Cl)C(Cl)(Cl)Cl", "note": "(stereo not drawn)", "values": [{"measurement": "T/C", "setting": "dose: 100.0 mg/kg/injection, schedule: Q01DX009 (sc), vehicle: olive oil, sesame oil, peanut oil", "value": "96 % of control"}, {"measurement": "T/C", "setting": "dose: 100.0 mg/kg/injection, schedule: Q04DX003 (sc), vehicle: olive oil, sesame oil, peanut oil", "value": "102 % of control"}, {"measurement": "T/C", "setting": "dose: 200.0 mg/kg/injection, schedule: Q01DX009 (sc), vehicle: olive oil, sesame oil, peanut oil", "value": "89 % of control"}, {"measurement": "T/C", "setting": "dose: 200.0 mg/kg/injection, schedule: Q04DX003 (sc), vehicle: olive oil, sesame oil, peanut oil", "value": "113 % of control"}, {"measurement": "T/C", "setting": "dose: 400.0 mg/kg/injection, schedule: Q01DX009 (sc), vehicle: olive oil, sesame oil, peanut oil", "value": "97 % of control"}, {"measurement": "T/C", "setting": "dose: 400.0 mg/kg/injection, schedule: Q04DX003 (sc), vehicle: olive oil, sesame oil, peanut oil", "value": "102 % of control"}]}
{"smiles": "O=P(Cl)(NC12CC3CC(CC(C3)C1)C2)c1ccccc1", "note": "(stereo not drawn)", "values": [{"measurement": "T/C", "setting": "[5]", "value": "91 % of control"}, {"measurement": "survivor count", "setting": "[6]", "value": "6 of 6"}, {"measurement": "survivor count", "setting": "[7]", "value": "4 of 6"}]}
{"smiles": "Cc1ccc2c(c1)C[P+](c1ccccc1)(c1ccccc1)CCC2C.F[P-](F)(F)(F)(F)F", "note": "(stereo not drawn)", "values": [{"measurement": "T/C", "setting": "dose: 25.0 mg/kg/injection, schedule: Q04DX002 (ip), vehicle: saline with Tween-80", "value": "94 % of control"}, {"measurement": "T/C", "setting": "dose: 50.0 mg/kg/injection, schedule: Q04DX002 (ip), vehicle: saline with Tween-80", "value": "88 % of control"}, {"measurement": "T/C", "setting": "dose: 100.0 mg/kg/injection, schedule: Q04DX002 (ip), vehicle: saline with Tween-80", "value": "102 % of control"}]}
{"smiles": "CCOC(=O)NNC(=O)NP(=O)(NC(=O)NNC(=O)OCC)NC(=O)NNC(=O)OCC", "values": [{"measurement": "T/C", "setting": "dose: 100.0 mg/kg/injection, schedule: Q01DX001 (ip), vehicle: carboxymethylcellulose (CMC)", "value": "98 % of control"}, {"measurement": "T/C", "setting": "dose: 200.0 mg/kg/injection, schedule: Q01DX001 (ip), vehicle: carboxymethylcellulose (CMC)", "value": "88 % of control"}, {"measurement": "T/C", "setting": "dose: 400.0 mg/kg/injection, schedule: Q01DX001 (ip), vehicle: carboxymethylcellulose (CMC)", "value": "90 % of control"}]}
{"smiles": "O=P(Cl)(NC12CC3CC(CC(C3)C1)C2)Oc1ccccc1", "note": "(stereo not drawn)", "values": [{"measurement": "T/C", "setting": "dose: 6.0 mg/kg/injection, schedule: Q01DX009 (ip), vehicle: Klucel (hydroxypropylcellulose) (HPC)", "value": "101 % of control"}, {"measurement": "T/C", "setting": "dose: 12.0 mg/kg/injection, schedule: Q01DX009 (ip), vehicle: Klucel (hydroxypropylcellulose) (HPC)", "value": "106 % of control"}, {"measurement": "T/C", "setting": "dose: 25.0 mg/kg/injection, schedule: Q01DX009 (ip), vehicle: Klucel (hydroxypropylcellulose) (HPC)", "value": "101 % of control"}, {"measurement": "survivor count", "setting": "[5]", "value": "3 of 6"}, {"measurement": "survivor count", "setting": "[6]", "value": "1 of 6"}, {"measurement": "survivor count", "setting": "[7]", "value": "0 of 6"}]}
